Reference: paper PMC13415819
These are yes or no findings as the source states them, for the method shown. In cells and extracts the contact can be indirect. Here binding means that the protein was enriched with, or labelled near, the bait; the list need not be complete.

Chains of the proteins cited; added tags and fusions are not shown. Lines headed by an entry give the natural chain unless they say otherwise; changes in a name come on top. A line that says so, or that is headed by a name, gives the form on record, which may keep a tag or linker.
UniProt O95817: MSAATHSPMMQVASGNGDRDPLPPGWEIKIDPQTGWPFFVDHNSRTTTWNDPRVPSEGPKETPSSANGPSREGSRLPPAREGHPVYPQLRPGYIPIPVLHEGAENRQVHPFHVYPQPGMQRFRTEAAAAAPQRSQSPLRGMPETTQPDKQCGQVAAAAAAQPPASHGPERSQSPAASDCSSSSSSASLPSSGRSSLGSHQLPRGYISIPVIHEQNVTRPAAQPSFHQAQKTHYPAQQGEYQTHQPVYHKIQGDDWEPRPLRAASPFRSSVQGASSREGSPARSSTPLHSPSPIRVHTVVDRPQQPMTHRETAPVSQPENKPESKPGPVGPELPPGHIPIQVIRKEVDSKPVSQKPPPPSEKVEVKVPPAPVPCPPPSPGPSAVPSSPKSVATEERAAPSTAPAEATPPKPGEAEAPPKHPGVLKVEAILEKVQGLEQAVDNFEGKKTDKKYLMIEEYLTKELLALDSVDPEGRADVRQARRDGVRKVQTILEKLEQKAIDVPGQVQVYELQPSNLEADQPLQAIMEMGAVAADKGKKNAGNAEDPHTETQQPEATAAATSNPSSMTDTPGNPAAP
UniProt Q8VHX6: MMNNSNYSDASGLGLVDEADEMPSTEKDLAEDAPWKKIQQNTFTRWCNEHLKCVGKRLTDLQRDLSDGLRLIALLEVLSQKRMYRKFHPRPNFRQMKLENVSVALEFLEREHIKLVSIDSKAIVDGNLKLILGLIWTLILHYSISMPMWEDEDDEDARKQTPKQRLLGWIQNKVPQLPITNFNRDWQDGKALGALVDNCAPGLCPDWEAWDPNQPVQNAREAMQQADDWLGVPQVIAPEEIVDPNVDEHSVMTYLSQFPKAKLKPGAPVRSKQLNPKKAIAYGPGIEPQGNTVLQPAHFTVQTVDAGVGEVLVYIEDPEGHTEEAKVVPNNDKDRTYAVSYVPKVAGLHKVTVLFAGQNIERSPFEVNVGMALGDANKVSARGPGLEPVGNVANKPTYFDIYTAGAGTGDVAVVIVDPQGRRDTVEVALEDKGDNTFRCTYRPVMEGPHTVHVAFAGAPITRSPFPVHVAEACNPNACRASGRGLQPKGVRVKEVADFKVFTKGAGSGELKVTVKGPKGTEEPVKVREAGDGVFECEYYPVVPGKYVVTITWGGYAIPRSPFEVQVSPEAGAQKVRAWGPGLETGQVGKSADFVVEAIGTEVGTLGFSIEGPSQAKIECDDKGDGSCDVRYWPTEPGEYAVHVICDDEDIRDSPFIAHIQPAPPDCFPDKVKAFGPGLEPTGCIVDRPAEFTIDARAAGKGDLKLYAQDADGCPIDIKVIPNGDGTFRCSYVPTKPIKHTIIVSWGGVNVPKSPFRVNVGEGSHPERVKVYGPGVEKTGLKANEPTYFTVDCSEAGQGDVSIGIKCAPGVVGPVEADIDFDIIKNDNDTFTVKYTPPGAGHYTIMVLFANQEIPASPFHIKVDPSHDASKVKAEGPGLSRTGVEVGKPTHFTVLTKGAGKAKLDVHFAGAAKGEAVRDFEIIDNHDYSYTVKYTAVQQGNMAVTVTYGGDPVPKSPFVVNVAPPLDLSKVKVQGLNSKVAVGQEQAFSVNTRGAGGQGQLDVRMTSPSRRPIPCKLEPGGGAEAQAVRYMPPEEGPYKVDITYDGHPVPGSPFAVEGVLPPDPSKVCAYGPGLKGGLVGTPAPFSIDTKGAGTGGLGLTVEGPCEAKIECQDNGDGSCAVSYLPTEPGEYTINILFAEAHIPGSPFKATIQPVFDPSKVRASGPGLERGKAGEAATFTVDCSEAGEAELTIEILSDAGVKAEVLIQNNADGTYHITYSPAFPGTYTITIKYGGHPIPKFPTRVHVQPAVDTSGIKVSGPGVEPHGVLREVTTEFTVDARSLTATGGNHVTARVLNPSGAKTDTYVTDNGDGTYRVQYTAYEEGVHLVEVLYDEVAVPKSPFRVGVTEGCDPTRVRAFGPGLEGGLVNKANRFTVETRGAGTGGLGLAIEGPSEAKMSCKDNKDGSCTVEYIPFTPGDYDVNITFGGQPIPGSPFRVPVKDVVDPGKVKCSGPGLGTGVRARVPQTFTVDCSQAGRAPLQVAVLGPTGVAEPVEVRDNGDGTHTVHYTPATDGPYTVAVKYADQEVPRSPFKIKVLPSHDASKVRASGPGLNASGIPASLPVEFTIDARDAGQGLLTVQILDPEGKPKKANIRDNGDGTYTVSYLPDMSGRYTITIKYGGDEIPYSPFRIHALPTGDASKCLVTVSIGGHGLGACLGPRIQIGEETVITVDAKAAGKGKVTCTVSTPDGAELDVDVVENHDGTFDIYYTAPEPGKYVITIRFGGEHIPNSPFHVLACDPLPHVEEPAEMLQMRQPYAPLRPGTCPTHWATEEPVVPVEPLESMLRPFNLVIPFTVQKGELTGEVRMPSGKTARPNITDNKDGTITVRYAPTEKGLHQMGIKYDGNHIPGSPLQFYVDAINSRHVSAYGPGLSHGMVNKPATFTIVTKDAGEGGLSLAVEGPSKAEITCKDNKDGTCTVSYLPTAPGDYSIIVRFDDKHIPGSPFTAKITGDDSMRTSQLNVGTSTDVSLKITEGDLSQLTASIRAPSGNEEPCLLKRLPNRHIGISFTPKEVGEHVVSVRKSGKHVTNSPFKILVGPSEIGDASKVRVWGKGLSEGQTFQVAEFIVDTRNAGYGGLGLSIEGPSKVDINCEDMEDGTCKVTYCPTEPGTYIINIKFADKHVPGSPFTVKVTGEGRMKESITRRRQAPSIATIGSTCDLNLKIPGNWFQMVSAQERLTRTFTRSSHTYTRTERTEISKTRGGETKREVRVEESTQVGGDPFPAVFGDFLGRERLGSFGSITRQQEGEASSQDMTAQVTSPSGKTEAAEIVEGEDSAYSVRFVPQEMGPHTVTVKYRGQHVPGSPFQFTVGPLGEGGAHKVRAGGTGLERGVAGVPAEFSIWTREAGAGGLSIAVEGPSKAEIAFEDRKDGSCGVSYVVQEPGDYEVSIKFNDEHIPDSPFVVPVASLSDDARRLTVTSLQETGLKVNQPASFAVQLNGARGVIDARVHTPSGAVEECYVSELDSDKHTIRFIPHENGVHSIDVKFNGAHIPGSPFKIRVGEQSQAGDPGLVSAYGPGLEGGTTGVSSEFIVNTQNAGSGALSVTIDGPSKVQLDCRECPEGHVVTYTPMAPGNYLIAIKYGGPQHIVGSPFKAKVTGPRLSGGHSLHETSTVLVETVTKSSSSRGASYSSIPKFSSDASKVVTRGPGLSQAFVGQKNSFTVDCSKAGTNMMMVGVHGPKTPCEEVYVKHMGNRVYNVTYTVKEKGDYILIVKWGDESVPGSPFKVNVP
UniProt P51150: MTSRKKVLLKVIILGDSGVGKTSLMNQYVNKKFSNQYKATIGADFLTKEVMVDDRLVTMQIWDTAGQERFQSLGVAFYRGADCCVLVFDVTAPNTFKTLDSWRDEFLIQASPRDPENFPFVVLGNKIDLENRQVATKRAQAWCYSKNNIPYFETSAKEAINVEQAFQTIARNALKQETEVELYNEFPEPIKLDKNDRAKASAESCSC
XIRP1 (O70373, form named): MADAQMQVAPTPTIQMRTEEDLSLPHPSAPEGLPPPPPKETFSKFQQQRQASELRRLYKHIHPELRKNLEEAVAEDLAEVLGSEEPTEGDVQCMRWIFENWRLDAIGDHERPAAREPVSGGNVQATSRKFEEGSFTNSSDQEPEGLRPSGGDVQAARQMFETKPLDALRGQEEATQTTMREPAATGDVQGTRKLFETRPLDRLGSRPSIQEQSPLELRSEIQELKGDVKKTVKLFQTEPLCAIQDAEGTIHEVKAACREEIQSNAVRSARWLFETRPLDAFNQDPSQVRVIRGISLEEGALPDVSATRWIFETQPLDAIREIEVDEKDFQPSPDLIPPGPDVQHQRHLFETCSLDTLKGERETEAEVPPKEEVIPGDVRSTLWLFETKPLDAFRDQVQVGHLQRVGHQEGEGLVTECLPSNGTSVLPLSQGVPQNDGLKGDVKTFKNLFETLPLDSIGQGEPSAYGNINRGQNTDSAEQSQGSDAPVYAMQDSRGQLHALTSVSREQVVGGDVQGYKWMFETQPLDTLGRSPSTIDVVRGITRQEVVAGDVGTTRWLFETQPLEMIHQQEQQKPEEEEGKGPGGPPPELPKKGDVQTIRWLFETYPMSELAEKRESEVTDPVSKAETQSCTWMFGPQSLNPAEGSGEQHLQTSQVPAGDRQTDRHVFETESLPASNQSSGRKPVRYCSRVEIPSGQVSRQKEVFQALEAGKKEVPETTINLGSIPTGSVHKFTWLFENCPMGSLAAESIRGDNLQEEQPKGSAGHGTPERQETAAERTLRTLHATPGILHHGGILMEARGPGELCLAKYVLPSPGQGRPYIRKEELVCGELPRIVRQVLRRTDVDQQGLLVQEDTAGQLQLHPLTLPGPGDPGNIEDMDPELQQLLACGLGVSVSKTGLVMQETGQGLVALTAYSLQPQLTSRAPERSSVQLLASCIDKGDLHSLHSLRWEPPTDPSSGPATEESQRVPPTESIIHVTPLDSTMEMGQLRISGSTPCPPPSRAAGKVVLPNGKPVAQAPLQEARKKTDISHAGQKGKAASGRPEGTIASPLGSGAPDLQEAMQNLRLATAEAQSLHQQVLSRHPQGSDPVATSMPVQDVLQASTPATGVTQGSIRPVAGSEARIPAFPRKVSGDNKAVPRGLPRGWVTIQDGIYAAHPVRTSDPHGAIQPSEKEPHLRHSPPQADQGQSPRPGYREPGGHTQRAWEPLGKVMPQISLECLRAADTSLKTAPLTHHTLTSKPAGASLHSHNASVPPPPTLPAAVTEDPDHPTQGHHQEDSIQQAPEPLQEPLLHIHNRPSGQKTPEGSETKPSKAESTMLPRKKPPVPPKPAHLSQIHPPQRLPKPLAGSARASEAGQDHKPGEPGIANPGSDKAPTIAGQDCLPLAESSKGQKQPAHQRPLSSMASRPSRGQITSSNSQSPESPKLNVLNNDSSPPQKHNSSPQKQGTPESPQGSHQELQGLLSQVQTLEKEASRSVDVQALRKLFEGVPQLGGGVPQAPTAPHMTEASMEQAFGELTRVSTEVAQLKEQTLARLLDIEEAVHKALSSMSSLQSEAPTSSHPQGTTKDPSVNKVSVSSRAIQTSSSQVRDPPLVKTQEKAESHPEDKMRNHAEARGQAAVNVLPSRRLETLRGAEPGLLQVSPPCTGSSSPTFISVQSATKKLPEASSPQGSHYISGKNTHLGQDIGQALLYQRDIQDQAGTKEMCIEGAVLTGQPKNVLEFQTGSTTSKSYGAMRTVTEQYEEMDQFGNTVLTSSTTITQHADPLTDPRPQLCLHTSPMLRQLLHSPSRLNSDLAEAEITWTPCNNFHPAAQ

B1: SYNPO (protein, UniProt Q8CC35 1-929)
chain: MLGAHFPPPPLGASEGRAAPCTFQIPDGSYRCLALEAEESSSEDGLQGEVRLVDLEEEGTSQSRANHGTPPLSRAPAIIQPSSCHREARGGFQRSDRPSHDWDVVQARKVMTASGSSSPVPRVAQKPALGRSTSFTENDLKEAKARSQQIAAQLTTPPSSNSRGVQLFNRRRQRVNEFTLESRGQRSPKLNQEALQTGRPLSPIGHAPGPSVKPTSPSKPGSPKHPSPQSPSRGVAGHIMEGYSEEASLLRHLEKVASEEEEVPLVVYLKENAALLTANGLHLSQSRETQQSSPNPPDTEVPSPAADINQNPSSPNATLTTLASSSHHSQPTADINQNPPAAITPVPQNSSQAQCSPNGTLDSKPGTLCADDGQSPVPAEEVRSSILLIDKVSAPPSAASTFSREATPLSSSGPPAADLMSSSLLIDMQPSTLVAPAEQEVPGHVAVTTPTKVYSEVHLTLAKPASVVNRTARPFGIQSPGTSQIEQSPMMGRRQFGEKAWAPPASSMADRSPQPQRHIMSRSPMVERRLLGQRSPVLERRPLGNFTPPPTYAETLSTAPVASRVRSPPSYSTLYPSSDPKPSHLKGQVAPANKTGILEESMARRGSRKSMFTFVEKPKVTPNPDLLDLVQTADEKRRQRDHGEVGMEEEPFALGAEASNFQQEPIARDRASPAAAEEAVPEWASCLKSPRIQAKPKPKPNQNLSEASGKGAELYARRQSRMEKYVIESSGHAELARCPSPTMSLPSSWKYTTNAPGGFRVASLSPARTPPASLYHGYLPENGVLRPEPTKQQPYQMRPSLYALSPVKEPAKASSRATSSRTPSRTVSPRAASPAKPSSLDLVPNLPRAGLPPSPALPRPSRSSPGLYTAPVQDSLQPTAVSPTYSSDISPVSPSRAWSPRAKQAPRPSFSTRNAGIEAQVWKPSFCFK
B2: PDLIM3 (endogenous, C2C12) (protein, UniProt O70209 1-316)
chain: MPQNVVLPGPAPWGFRLSGGIDFNQPLVITRITPGSKAAAANLCPGDVILAIDGFGTESMTHADAQDRIKAASYQLCLKIDRAETRLWSPQVSEDGKAHPFKINLEAEPQEFKPIGTAHNRRAQPFVAAANIDDKRQVVSASYNSPIGLYSTSNIQDALHGQLRGLIPGSLQNEPTASVPPQSDVYRMLHDNRDDPAAPRQSGSFRVLQDLVNDGPDDRPAGTRSVRAPVTKVHGGAGSAQRMPLCDKCGSGIVGAVVKARDKYRHPECFVCADCNLNLKQKGYFFVEGELYCETHARARTRPPEGYDTVTLYPKA
B3: synaptopodin-2/myopodin (SYNPO2) (protein, UniProt Q91YE8 1-1087)
chain: MGTGDFICISMTGGAPWGFRLQGGKEEQQPLQVAKIRSQSKASGSGLREGDEVVSINGNPCADLTYPEVIKLMEGITDSLHLLVKRPSSGTSETLDSESETTNHQHLTHEGPMESTTLQIQQATETQSEDFFLAPVQTKVPLTEDQSNAWGYAECPKEEQAPPMLGSQEGHLVEEVILRQKAEAGQPGHVVELQLSLSKERHQCTSGPIVTLQGNDKSTSPDPDWSSQLERTVHINSIPAPEKADTSLTSSTSSGRELRVIQGRDPGGAGLPQVEVILDCSDRLKAEECRLQTGRGCVASPVEGGRSEAPPSLVSFAVSSEGTEHGEDQRSGKDQSRPHKHRARHARLRRSESLSEKQVKEAKSKCKSIALLLTDAPNPNSKGVLMFKKRRRRARKYTLVSYGTGELEREEEEEEDQEAGDKDEISEVAFLGTSESEVDEELLSDVDDNTQVVNFDWDSGLVDIEKRLNRGDKMEMLPDTTGKGALMFAKRRERMEQFTAQNEEEKTGGMAGGGPDALQTDGLRTMTSYQRKEESVRMQSSVSESSFQMGRSLASVPQQNGFSGVSETAGAQRMFPMNRTAKPFLGSMNQPAAPFSPTRSVTSPISDFPAPPPYSAVSPPPEAFSRGVSSPVAGPAQPPPWPQPAPWSQPAFYDSSEQIASRDERIAVPAKRTGILQEAKRRGTTKPMFTFKETKVSPNPELLSLLQNAEGKRGTGGDSGPEEDYLSLGAEACNFMQSSAKQKTPPPVAPKPAVKSPSSSQPVAPVSPVWSPGVAPAQRPAFSTSNPPNPPQVTAVSSIKIAQPAAPPARPASALNLAGPFKGPQAVVVSHNYTPKPSAPTPLVNAAPAGAGGPSNELPGMSGKGAQLFAKRQSRMEKYVVDSDTVQAHTVRAQSPTPSLPASWKYSSNVRAPPPVAYNPIHSPSYPLAAIKSQPPGAQASKTSKKKGKKPLNTLDVMKHQPYQLNASLFTFQPPDSKDGLPQKSTVKVSSAPAMKQALPPRQANVGSPTNAQASSVYSVPAYTSQPNFFAAEATSPVSASPVPVSVPTSPKQESTSTSYFVAPRPKFSAKKSGVTVQVWKPSVVEE

The molecules below were run against TurboID-BAG3 (human) (UniProt O95817) (assay: proximity labelling; C2C12 myotubes stably expressing TurboID-BAG3, differentiated 7 days, 50 µM biotin for 1.5 h at 37 °C; biotinylated proteins purified on Streptavidin-Sepharose and identified by mass spectrometry (DIA); compared with control samples).
With “Filamin C (FLNC) (from UniProt Q8VHX6 1-2726)” the binding was “binds”.
RAB7A (from UniProt P51150 1-207) was tested, and the binding was “binds”.
XIRP1 (from UniProt O70373 1-1813) was tested, and the binding was “binds”.
For XIRP2 (from UniProt Q4U4S6 1-3784), the binding was “binds”.
With B1 the binding was “binds”.
With B2 the binding was “binds”.
For B3, the binding was “binds”.
